In PubChem BioAssay AID2685 (National Center for Advancing Translational Sciences (NCATS), 2010):
This is one part of the list. Further columns of the screen follow, without active or inactive calls. The list favours compounds with an active or inconclusive main result. Potencies come from curve fits of mixed quality, noted in brackets.

Test: qHTS Assay for Lipid Storage Modulators in Drosophila S3 Cells;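 for cell number change: cells counted by Cell Tracker Red CMTPX staining in the red channel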
Settings: BODIPY lipid droplet fluorescence, 18-24 h; for cell number change: measured here: cell count max response, cells fed with added oleic acid
Method in brief: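 Drosophila S3 cells got compounds at several concentrations plus oleic acid (400 uM solution). Laser-scanning cytometry with 488 nm excitation read lipid droplets at 500-530 nm and cells at 575-640 nm. Percent activity was relative to 20 uM Triacsin C.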

[1] = measured here: lipid fluorescence (Fed channel) AC50, cells fed with added oleic acid
[2] = measured here: cell number channel AC50, cells fed with added oleic acid

Row | Compound | cell number change | AC50 [1] | AC50 [2]
1 | COc1ccc(OC)c(C(=O)COC(=O)c2cccnc2SC)c1 | -24.9% | – | –
2 | O=C(Cc1ccc(Cl)cc1)Nc1ccc2oc(=O)ccc2c1 | 12.2% | 1.84 µM [rising, partial curve] | –
3 | O=C(Nc1ccc(NC(=S)NC(=O)c2ccccc2F)cc1)c1cccs1 | – | – | 4.11 µM [rising, single point]
4 | c1cc(-c2nsc(-c3ccncc3)n2)ccn1 | 20.3% | 14.6 µM [rising, partial curve, poor fit] | –
5 | CC1C/C(=N/NC(=O)c2cccs2)CC(C)(C)C1 (configuration not stated) | 50.6% | 0.82 µM [falling, single point] | 29.1 µM [rising, single point]
6 | O=C(CCN1C(=O)C2C3CCC(C3)C2C1=O)OCC(=O)c1ccc(Br)cc1 (configuration not stated) | -14.4% | 13 µM [falling, single point] | –
7 | Cc1cc(Br)ccc1SCC(=O)OCC(=O)Nc1ncc(C(F)(F)F)cc1Cl | 12.8% | 6.51 µM [falling, single point] | –
8 | CCCCN(C1CCS(=O)(=O)C1)S(=O)(=O)c1ccc(OC)cc1 (configuration not stated) | -31% | – | 29.1 µM [falling, single point]
9 | CCOc1cccc(NC(=O)c2cccc(F)c2)c1 | 96.8% | – | 0.731 µM [rising, single point]
10 | CCn1c(O)c(N=NC(=O)c2ccc(CSc3nncn3C)cc2)c2ccccc21 | -18.5% | – | –
11 | O=C(NCCc1cn2ccccc2n1)C1CCCCC1 | – | 0.291 µM [falling, partial curve, poor fit] | –
12 | Cc1cccc(Nc2nc(NC(C)C)nc(Oc3ccc(=O)n(C)n3)n2)c1 | 5.2% | – | 1.46 µM [rising, partial curve]
13 | COc1ccc(N2CCN(C(=O)COC(=O)c3oc4ccc(OC)cc4c3C)CC2)cc1 | -0.971% | – | –
14 | Cc1ccc2c(c1)c(N=Nc1ccc([N+](=O)[O-])cc1)c(O)n2C | – | 0.58 µM [rising, single point] | 0.651 µM [rising, partial curve, poor fit]
15 | O=C(CSc1nc(-c2ccccc2)c(-c2ccccc2)[nH]1)Nc1nccs1 | -44.4% | 7.31 µM [falling, single point] | 16.4 µM [falling, single point]
16 | O=C(CN1CCN(Cc2ccccc2F)CC1)Nc1ccccc1Cl | 2.13% | 0.58 µM [falling, single point] | –
17 | COC(=O)CSc1nc2c(c(-c3ccc(O)cc3)c1C#N)CCCC2 | -54.6% | 29.1 µM [falling, single point] | 20.6 µM [falling, single point]
18 | CCOc1ccc2nc(NC(=O)c3ccoc3C)sc2c1 | -19.7% | 4.61 µM [rising, partial curve, poor fit] | –
19 | C1=Nc2c(Nc3ccccc3)ncnc2Oc2ccccc21 | 3.75% | 6.51 µM [rising, partial curve, poor fit] | –

Two compounds drawn at random from those above, as already listed:
Row | Compound | cell number change | AC50 [1] | AC50 [2]
14 | Cc1ccc2c(c1)c(N=Nc1ccc([N+](=O)[O-])cc1)c(O)n2C | – | 0.58 µM [rising, single point] | 0.651 µM [rising, partial curve, poor fit]
12 | Cc1cccc(Nc2nc(NC(C)C)nc(Oc3ccc(=O)n(C)n3)n2)c1 | 5.2% | – | 1.46 µM [rising, partial curve]

Next results:

Row | Compound | cell number change | AC50 [1] | AC50 [2]
20 | Cc1ccc(SCCC(=O)Nc2ccc(Br)c(C)c2)cc1 | -16.4% | 25.9 µM [falling, single point] | –
21 | CC(=O)c1c(N2CCN(c3ccc(F)cc3)CC2)nc(=S)n(-c2ccccc2)c1C | 30.8% | 0.0058 µM [falling, full curve, poor fit] | 3.66 µM [rising, partial curve]
22 | COc1ccc(C(C(=O)NC2CCCC2)N(C(=O)c2ccoc2C)c2ccc(C)c(C)c2)cc1 (configuration not stated) | -12.5% | 29.1 µM [falling, single point] | –
23 | COc1ccccc1OCCn1cc(/C=N/NC(=O)c2ccncc2)c2ccccc21 | 25.9% | 20.6 µM [rising, single point] | –
24 | O=C(CNC(=S)N(Cc1ccccc1F)C1CCCCC1)NCCN1CCOCC1 | – | 0.00651 µM [falling, full curve, poor fit] | –
25 | Nc1cccc2c(=O)c3ccccc3[nH]c12 | 11.3% | 7.31 µM [falling, partial curve] | –
26 | CC1(C(=O)O)CCC(C(=O)NNC(=O)c2ccccc2O)C1(C)C (configuration not stated) | 27.8% | – | 3.26 µM [rising, full curve, poor fit]
27 | CC(=O)Nc1ccc(NC(=O)CSc2nnc(-c3ccc(NS(C)(=O)=O)cc3)n2C)cc1C | -29.4% | – | –
28 | COC(=O)c1cccc(Nc2nc3ccccc3nc2C)c1 | -23.2% | 20.6 µM [falling, single point] | –
29 | Cc1ccc(-c2nn(-c3ccccc3)cc2C(=O)N2CCN(C3CCS(=O)(=O)C3)CC2)cc1 (configuration not stated) | -8.13% | 3.66 µM [rising, single point] | –
30 | Cc1ccc(C)c(S(=O)(=O)N2CCN(C(=O)c3ccc(-n4cncn4)c([N+](=O)[O-])c3)CC2)c1 | -17.7% | – | –
31 | CC1CCOC(c2coc3ccccc3c2=O)O1 (configuration not stated) | 8.11% | – | 6.51 µM [rising, single point]
32 | Cc1nn(CCC(=O)O)c2nc(-c3cccnc3)cc(C(F)(F)F)c12 | -30.9% | 1.46 µM [falling, partial curve] | 29.1 µM [falling, single point]
33 | Cc1nn(C)c(C)c1NC(=O)CC12CC3CC(CC(C3)C1)C2 | – | 1.16 µM [falling, single point] | –
34 | COc1ccccc1N1CCN(S(=O)(=O)c2ccc(-n3cnnn3)cc2)CC1 | -13.3% | 29.1 µM [falling, partial curve, poor fit] | –
35 | CCc1ccc(C2NC(=S)NC3=C2C(=O)N(c2ccccc2OC)C(c2ccc(CC)cc2)N3)cc1 (configuration not stated) | -80.5% | 4.11 µM [rising, partial curve, poor fit] | –
36 | CCOc1ccc(NC(=O)CN(C)C(=O)CN2C(=O)NC3(CCCC3)C2=O)cc1OCC | 8.84% | – | –
37 | N#Cc1cccc(NC(=O)COC(=O)Cn2nc(-c3ccccc3)oc2=O)c1 | 2.55% | 9.2 µM [rising, partial curve, poor fit] | –
38 | COc1cc(C)ccc1OCCOCCOc1cc(C)c(C)cc1Br | -31.4% | 14.6 µM [rising, partial curve, poor fit] | 0.164 µM [falling, full curve, poor fit]
